Data published in patent US10086086B2, “Payload molecule delivery using molecular rebar” (Molecular Rebar Design, LLC, priority 2014, dated 2018).

Details: Example 8: room temperature

CCOP(=O)(Cc1ccc(OC)cc1)OCC [D4MBP]
time to reach equilibrium concentration of adsorbed D4MBP: 5 h
